Measurements from “University of Dundee, Small-Polar-MMV Screening Library” (2021), ChEMBL document CHEMBL3988442.

Mtb cholesterol medium: 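Growth of Mycobacterium tuberculosis over 4 days (cholesterol / DPPC medium with tyloxapol); the read-out is not stated. Tested at 50 µM. The record gives no direction; compounds that gave an IC50 in retests scored well above the rest, so higher reads as more growth inhibition. Size under these conditions: about 69,000 compounds, about 370 of them at 50% or above in at least one test.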
Mtb glucose medium: 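Whole-cell growth test on Mycobacterium tuberculosis, read after 3 days in glucose-containing 7H9 medium; the read-out is not stated. Concentration: 50 µM. The record gives no direction; compounds that gave an IC50 in retests scored well above the rest, so higher reads as more growth inhibition. About 69,000 compounds were tested under these conditions; 1.1% (about 760) showed 50% or more at least once.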

Results are given as percent effect.
How 0% and 100% were set is not recorded. Most values in the screen are low, and negative values occur.
The compounds are a random part of those screened.
Two or more numbers in one place are separate tests of the same structure; such repeats can differ widely.

| SMILES | Mtb cholesterol medium | Mtb glucose medium |
|---|---|---|
| `CCN(CC)CCn1cc(NC(=O)c2ccccc2OC)cn1` | 0.8013 | -16.66 and 3.625 |
| `CCN(Cc1nc(COC)no1)C(=O)CCNC(=O)c1ccccc1F` | -9.955 | -3.521 and 0.02087 |
| `CCOc1ccc(NC(=O)c2cc3c([nH]c2=O)CCC3)cc1` | -13.5 | 2.33 |
| `CC(C)n1ncc2cc(NC(=O)N3CCC(N4CCCC4)C3)cnc21` (stereo not shown) | -1.925 | 8.994 |
| `CN(Cc1ccncc1)C1COC2(CCN(Cc3ccccn3)CC2)C1.O=C(O)C(F)(F)F.O=C(O)C(F)(F)F.O=C(O)C(F)(F)F.O=C(O)C(F)(F)F` (stereo not shown) | 3.286 | 2.753 |
| `Br.CCOc1ccc(N(CC(=O)c2ccccc2)C2=NCCCCC2)cc1` | 76.47 | 84.34 and 80.15 |
| `CC(=O)N1CCCN(C(=O)NC(C)c2ccc(C)o2)CC1` (stereo not shown) | -27.63 | -23.37 and 3.577 |
| `COCCC(=O)N1C[C@@H](c2ccccc2F)[C@@]2(CCCC(=O)N2)C1` | 9.71 | 24.5 |
| `CCn1cc(CN2CCCC(c3[nH]ncc3-c3ccc(C)cc3)C2)cn1` (stereo not shown) | 15.64 | 2.389 |
| `CO[C@@H]1CCN(Cc2cccs2)[C@H]1Cc1ccncc1` | 5.072 | 18.8 |
| `Cc1cccc(-c2nc(CN3CCc4c(ncn4C)C3)no2)c1` | -21.97 | -21.68 |
| `Cc1nc(C(=O)NC2CCN(CCOc3ccc(Br)cc3)CC2)cs1` | -3.982 | 14.56 |
| `CC[C@@]1(O)CCN(C(=O)c2ccc(OC(F)F)cc2)C[C@H]1O` | -5.071 and -10.91 | -4.406 |
| `COc1cnc(N2C[C@@H](CN3CCOCC3)[C@@H](CO)C2)nc1` | -4.138 | 20.85 |
| `O=C(O)C(F)(F)F.[H][C@@]12OCCN(C(=O)C3CCOCC3)[C@@]1([H])CC[C@H]2OCc1ccncc1` | -18.23 | -14.39 |
| `CC(C)c1ccc(/C=C/CC(=O)NC2CCN(C(N)=O)CC2)cc1` | 7.043 | 12.68 and 3.512 |
| `O=C(c1ccncc1)N1CC[C@@H](O)[C@@H](O)[C@H](N2CCC(F)(F)CC2)C1` | -14.5 | -7.444 |
| `O=C(CCc1ccc(Cl)cc1)NC1CCN(c2cccc(F)c2)CC1` | 6.385 | -8.361 |
| `NC(=O)CC1CCCCN1C(=O)Cc1cccc(Br)c1` (stereo not shown) | -15.79 | 9.78 |
| `COCCn1ccc(NC(=O)Nc2ccccc2)n1` | -1.116 | -16.31 |
| `CCn1nc(C)c(CCN2CC3(CCOC3)CCC2=O)c1C` (stereo not shown) | -33.7 | -0.1229 and 6.723 |
| `CCC(C)N(Cc1c[nH]c(C)n1)Cc1ccccc1Cl` (stereo not shown) | 28.34 | 28.27 |
| `Cc1noc(C)c1CNC(C(=O)N1CCOCC1)C(C)C` (stereo not shown) | -2.867 | -2.232 |
| `O=C(NCc1cccnc1)C1=NOC2(CCN(C(=O)N3CCCC3)C2)C1.O=C(O)C(F)(F)F` (stereo not shown) | -29.48 | 2.139 and 3.981 |
| `c1cc(-c2nnc([C@H]3CCN(C4CCOCC4)C3)o2)ccn1` | -16.23 | -5.047 and 0.542 |
| `CC(=O)N1CCOC(CNC(=O)c2cccc(CCC(C)(C)O)c2)C1` (stereo not shown) | -24.41 | -26.43 |
| `N#Cc1cccnc1N1CCC(OCc2ccccc2)CC1` | 6.17 | 24.67 |
| `Cc1ccc2c(n1)N(CCN(C)C)CCN(C(=O)c1cscn1)C2.O=C(O)C(F)(F)F.O=C(O)C(F)(F)F` | 8.763 and -7.707 | -18.51 |
| `[H][C@]12C[C@H](C(=O)NC)N(C)[C@@]1([H])CN(C(=O)c1cncc(C)c1)C2` | -18.4 | -21.08 |
| `CCC1(CC)Cc2ccccc2-c2nc(NCCO)[nH]c(=O)c21` | -1.786 | 30.6 and 3.575 |
| `Cn1cc(Cl)cc1C(=O)N1CCN(CCc2cccs2)CC1` | 15.04 | 32.71 |
| `CSc1ncn(-c2nc(NC3CC3)nc(N(C)C)n2)n1` | 5.355 | -0.7032 and 28.23 |
| `CC(C)NC(=O)CNC(C)COc1ccccc1` (stereo not shown) | 13.64 | 20.56 |
| `CCn1c(C2CCN(C(=O)c3ccc4cc[nH]c4c3)CC2)n[nH]c1=O` | -22.01 | -4.442 and -34.3 |
| `Cc1nn(C)c(C)c1-c1ccc(=O)n(C(C)C(=O)NCc2ccco2)n1` (stereo not shown) | -5.037 and -4.36 | -7.36 |
| `Cc1ccc(CN2CCc3onc(C(=O)N4CCCC4)c3C2)o1.O=C(O)C(F)(F)F` | 8.765 | 21.28 |
| `CN(C)C(=O)N1CCn2cc(CNC(=O)CC3CC3)nc2C1` | -37.56 | 2.804 |
| `Cc1cc(CCC(N)=O)cc(C2CCCN2Cc2ccnn2C)n1` (stereo not shown) | -22.88 | -41.18 |
| `Cc1cc(CNC(=O)Nc2ccc(C(=O)NC3CC3)cc2)no1` | 2.185 | 0.6288 and -4.55 |
| `Cc1nn(C)c(C)c1-c1c(-c2ccccc2)ncn1[C@H](CO)C(=O)O` | 7.1 | -27.83 |
| `Cc1noc(C)c1CN1CCn2cc(CN3CCCCC3)nc2C1.O=C(O)C(F)(F)F` | -9.668 | 20.01 |
| `CCn1c(CN2CCCC2)nnc1C1CCN(Cc2cc(C)no2)CC1` | -7.772 | -6.353 and -2.401 |
| `NC(=O)CN1CC2(CCC1=O)CCN(C(=O)c1ccccc1F)CC2` | -5.698 | -46.26 |
| `COC(=O)N1CCC(CNS(=O)(=O)c2cnn(C)c2)CC1` | 17.62 | 19.57 |
| `COc1c(CNC2CCCOc3ccc(F)cc32)c(C)nn1C.Cl` (stereo not shown) | -18.01 | -23.92 |
| `O=C(O)C(F)(F)F.O=C(O)C(F)(F)F.[H][C@@]12COC[C@]1(CNC(=O)c1ccsc1)CN(Cc1cccc(C)n1)C2` | -24.2 | -11.8 |
| `CC(C)CNC(=O)Cn1cc(C(N)=O)c(-c2ccccc2)n1` | -18.95 | 11.09 |
| `O=C(O)C(F)(F)F.O=C(O)C(F)(F)F.[H][C@]12CCC(=O)N(Cc3cccc(C)n3)[C@@]1([H])CCN2CC(=O)N(C)C` | -9.286 | 14.65 |
| `COc1cccc(CN2CCCC2c2c(C)nn(C)c2C)c1` (stereo not shown) | 5.932 | 68.63 |
| `CCC(CC)C(O)CNC(=O)Nc1cccc(-c2nccn2C)c1` (stereo not shown) | 16.75 | 11.97 |
| `CN(C)C(CNC(=O)CCNC(=O)OCC(F)(F)F)c1ccsc1` (stereo not shown) | -0.7084 | 1.863 and -1.275 |
| `COc1cc(CNCCn2cc(C)cn2)c2c(c1)CC(C)O2` (stereo not shown) | 27.68 | 4.067 and 40.74 |
| `CC(=O)c1cccc(-c2c[nH]c(C)n2)c1` | -4.255 | -4.688 and -7.322 |
| `C=C(C)COc1cccc(C(=O)N2CCC(O)(c3ccccc3)CC2)c1` | 0.2156 | -13.81 |
| `CCCN(CC(=O)NC)C(=O)c1ccc(-c2nc(C)cs2)cc1` | 15.91 | 7.998 |
| `Fc1ccc(-c2noc([C@@H]3Cc4nc[nH]c4CN3)n2)cc1` | 17.03 | 5.683 and -3.402 |
| `COCCOc1ncccc1-c1noc([C@@H]2CCCN2C2CCC2)n1` | -14.25 | -11.99 and 1.686 |
| `Cn1nccc1C(=O)N1CCOC(Cc2cccnc2)C1` (stereo not shown) | 10.89 | 15.89 |
| `O=C(Nc1ccc(-n2cccn2)cc1)N1C[C@H](O)[C@@H](N2CCOCC2)C1` | -3.783 | 18 |
| `CCc1nc(CN(C)C2CCN(Cc3ccc(C#N)cc3F)C2)no1` (stereo not shown) | -25.67 | -33.12 |
| `O=C(c1cc2c([nH]c1=O)CCC2)N1CCCC1c1cccnc1` (stereo not shown) | -9.177 | -31.03 |
| `CC(=O)N1CCC2(CN(CC3CCCC3)C2)C1.O=C(O)C(F)(F)F` | 13.02 | 4.997 |
| `CC(CC1CC1)NCCCN1CCCN(C)CC1` (stereo not shown) | -20.14 | 0.7669 |
| `Cc1ncsc1C(=O)N1CCCC(c2nccn2Cc2cscn2)C1` (stereo not shown) | -7.932 and 7.991 | 0.9475 |
| `O=c1[nH]c(NC2CCCC2)nc2nccc(-c3ccco3)c12` | 1.63 | 4.521 |
| `CCOCCN1CCN(CC(=O)NC2(C#N)CCCC2)CC1CC` (stereo not shown) | -10.78 | 14.42 and -4.157 |
| `Cc1ccccc1SC1CCN(C(=O)[C@@H]2C[C@@H](N)CN2)CC1` | 9.288 | 47.22 |
| `Cc1nn(C)c(C)c1C1CCCN1CC(=O)Nc1cccnc1` (stereo not shown) | -37.64 | 2.15 |
| `C[C@@H]1CN(C(=O)c2nc3ccc(Cl)cn3c2-c2ncc[nH]2)C[C@H](C)O1` | -13.92 | -4.83 |
| `CN(CC(=O)N1CCCC1Cn1cccn1)Cc1ccccc1` (stereo not shown) | 8.8 | -19.36 |
| `O=C(CCOc1ccccc1)N1CCCC(n2cncn2)C1` (stereo not shown) | 5.281 | 6.526 |
| `O=C(O)C(F)(F)F.[H][C@@]12COC[C@]1(C(=O)N1CCCO1)CN(Cc1nccs1)C2` | -0.4061 | -14.34 and -3.636 |
| `Cc1cccc(C)c1NC(=O)c1cccc(CN2CCCC2C)c1` (stereo not shown) | -11.98 | -1.381 |
| `c1ccc(-c2cc(CN3CCc4cncnc4C3)on2)cc1` | -5.32 | 0.3027 |
| `CC(C)(C)Cc1noc2ncc(C(=O)N3CCC3)cc12` | 3.127 | 22.63 |

5 of the entries, repeated:

Result for CC(=O)c1cccc(-c2c[nH]c(C)n2)c1 was Mtb cholesterol medium: -4.255%; Mtb glucose medium: -4.688% and -7.322%.
Result for CN(Cc1ccncc1)C1COC2(CCN(Cc3ccccn3)CC2)C1.O=C(O)C(F)(F)F.O=C(O)C(F)(F)F.O=C(O)C(F)(F)F.O=C(O)C(F)(F)F (stereo not shown) was Mtb cholesterol medium: 3.286%; Mtb glucose medium: 2.753%.
Result for CC(=O)N1CCC2(CN(CC3CCCC3)C2)C1.O=C(O)C(F)(F)F was Mtb cholesterol medium: 13.02%; Mtb glucose medium: 4.997%.
Result for COCCn1ccc(NC(=O)Nc2ccccc2)n1 was Mtb cholesterol medium: -1.116%; Mtb glucose medium: -16.31%.
Result for Cc1ncsc1C(=O)N1CCCC(c2nccn2Cc2cscn2)C1 (stereo not shown) was Mtb cholesterol medium: -7.932% and 7.991%; Mtb glucose medium: 0.9475%.